Results on 20 sequences are retold here after publication PMC7949032.

Residue numbers refer to the chain shown, from its start. For some of these results: A negative result means that nothing was seen under these conditions. For some of these results: At least one verdict rests on a figure or table, not on a statement of the authors. For some of these results: Where a protein sequence is shown, tags need not be part of it. For some of these results: A weaker result is weaker than the reference pair of the same experiment. For some of these results: For at least one entry, the source does not settle the construct or the ends of the probe.

The subject of data set [1] is DDX43 KH-126. The data set can be described thus: EMSA. Particulars: EMSA: 40 mM Tris pH 8.0, 0.5 mM MgCl2, 15 mM NaCl, 0.01% NP-40, 0.1 mM DTT, 1 mg/ml BSA, no ATP, ice 30 min (Fig 2A legend: RT), recombinant protein, protein details: His (pET28a), label: 5'-32P.
The target of data set [2] is T1, DDX43 KH-89 (UniProt Q9NXZ2).
T1 sequence (looked up): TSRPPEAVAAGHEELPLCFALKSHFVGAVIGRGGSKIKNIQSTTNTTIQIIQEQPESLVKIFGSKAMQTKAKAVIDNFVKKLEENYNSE
Briefly: EMSA. The conditions noted are these: EMSA: 40 mM Tris pH 8.0, 0.5 mM MgCl2, 15 mM NaCl, 0.01% NP-40, 0.1 mM DTT, 1 mg/ml BSA, no ATP, ice 30 min (Fig 2A legend: RT), recombinant protein, residues 54-142, label: 5'-32P.

Data set [3] concerns DDX43 KH-126. Briefly: filter binding. Particulars: Kd not determined, weak binding, filter binding: 25 mM Tris pH 7.5, 25 mM KOAc, 1 mM Mg(OAc)2, 1 mM DTT, 0.1 mg/ml BSA, 37 C, recombinant protein, protein details: His (pET28a), label: 5'-32P.
For data set [4], the target named is DDX43 full-length A81G (UniProt Q9NXZ2). The data set can be described thus: EMSA. The conditions noted are these: no ATP, weaker than WT, EMSA: 40 mM Tris pH 8.0, 0.5 mM MgCl2, 15 mM NaCl, 0.01% NP-40, 0.1 mM DTT, 1 mg/ml BSA, ice 30 min (Fig 2A legend: RT), recombinant protein, residues 1-648, label: 5'-32P.
Data set [5] addresses DDX43 full-length A81S (UniProt Q9NXZ2). The data set can be described thus: EMSA. Particulars: no ATP, weaker than WT, EMSA: 40 mM Tris pH 8.0, 0.5 mM MgCl2, 15 mM NaCl, 0.01% NP-40, 0.1 mM DTT, 1 mg/ml BSA, ice 30 min (Fig 2A legend: RT), recombinant protein, residues 1-648, label: 5'-32P.
The target in data set [6] is DDX43 full-length G87D (UniProt Q9NXZ2). Briefly: EMSA. The conditions noted are these: no ATP, weaker than WT, EMSA: 40 mM Tris pH 8.0, 0.5 mM MgCl2, 15 mM NaCl, 0.01% NP-40, 0.1 mM DTT, 1 mg/ml BSA, ice 30 min (Fig 2A legend: RT), recombinant protein, residues 1-648, label: 5'-32P.
Data set [7] has as its target DDX43 full-length WT (UniProt Q9NXZ2). The data set can be described thus: EMSA. The conditions noted are these: no ATP, EMSA: 40 mM Tris pH 8.0, 0.5 mM MgCl2, 15 mM NaCl, 0.01% NP-40, 0.1 mM DTT, 1 mg/ml BSA, ice 30 min (Fig 2A legend: RT), recombinant protein, residues 1-648, label: 5'-32P.
For data set [8], the target named is T1, DDX43 KH-89. Briefly: NMR HSQC titration. The conditions noted are these: NMR: 25 mM Hepes pH 7.4, 250 mM NaCl, 5% D2O, temperature not stated, recombinant protein, residues 54-142, single-stranded DNA.
The target in data set [9] is T2, DDX43 KH-74 (UniProt Q9NXZ2).
T2 sequence (looked up, limits assumed): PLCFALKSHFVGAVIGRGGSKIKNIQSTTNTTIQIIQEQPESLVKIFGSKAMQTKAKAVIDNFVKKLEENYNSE
The data set can be described thus: EMSA. The conditions noted are these: EMSA: 40 mM Tris pH 8.0, 0.5 mM MgCl2, 15 mM NaCl, 0.01% NP-40, 0.1 mM DTT, 1 mg/ml BSA, no ATP, ice 30 min (Fig 2A legend: RT), recombinant protein, protein details: His (pET28a), label: 5'-32P.

For data set [10], the target named is T3, DDX43 KH-89 A81G (UniProt Q9NXZ2).
T3 sequence (looked up): T1 sequence (looked up) with A28G
The data set can be described thus: EMSA. The conditions noted are these: EMSA: 40 mM Tris pH 8.0, 0.5 mM MgCl2, 15 mM NaCl, 0.01% NP-40, 0.1 mM DTT, 1 mg/ml BSA, no ATP, ice 30 min (Fig 2A legend: RT), recombinant protein, residues 54-142, protein details: His cleaved by thrombin, label: 5'-32P.

Data set [11] addresses T4, DDX43 KH-89 A81S (UniProt Q9NXZ2).
T4 sequence (looked up): T1 sequence (looked up) with A28S
Briefly: EMSA. Particulars: EMSA: 40 mM Tris pH 8.0, 0.5 mM MgCl2, 15 mM NaCl, 0.01% NP-40, 0.1 mM DTT, 1 mg/ml BSA, no ATP, ice 30 min (Fig 2A legend: RT), recombinant protein, residues 54-142, protein details: His cleaved by thrombin, label: 5'-32P.

In data set [12] the target is T4, DDX43 KH-89 A81S. Briefly: NMR HSQC titration. The conditions noted are these: fewer and smaller shifts than WT; NMR: 25 mM Hepes pH 7.4, 250 mM NaCl, 5% D2O, temperature not stated; recombinant protein; residues 54-142; protein details: His cleaved by thrombin; single-stranded DNA.
The mark [13] stands for this setting: rU30 > dT30 > dC30 > dA30, single-stranded DNA.
[14] abbreviates: similar to KH-126, single-stranded DNA.
Where [15] appears, read: Kd within 0.348-1.232 mM for the four A-containing 5-mers.

Turning to AAAAAAAAAAAAAAAAAAAAAAAAAAAAAA [dA30], the binding result in data set [1] (setting [13]), in data set [2] (setting [14]) and in data set [3] (single-stranded DNA) was “binds more weakly” in each case.
For the sequence “AAAAAAAAAAAAAAAACCGUAAAGACGC / GCGUCUUUACGGU [13-bp dsRNA 5' poly(A) tail]”, the binding result in data set [4], in data set [5], in [6] and in data set [7] (weaker than UUGU tail) was “binds more weakly” throughout.
ACCAC: the binding result in data set [8] (setting [15]) is “binds more weakly”.
For AGAGA, the binding result in data set [8] (weaker than CTCTC) is “binds more weakly”.
ATATA: the binding result in data set [8] (setting [15]) is given as “binds more weakly”.
The same measure, in the same setting: next, ATTAT: “binds more weakly”; CACAC: “binds more weakly”.
For “CCACTCAATACACCATCACCAAAAAAAAAAAAAAAAAAAAAAAAA / GGTGATGGTGTATTGAGTGG [20-bp dsDNA 3' poly(A) tail]”, the binding result in data set [4], in data set [5], in data set [6] and in data set [7] (weaker than TTGT tail) was “binds more weakly” each time.
On to “CCACTCAATACACCATCACCTTGTTGTTGTTGTTGTTGTTGTTGT / GGTGATGGTGTATTGAGTGG [20-bp dsDNA 3' TTGT-repeat tail]”, for which the binding result in data set [4], in data set [5] and in data set [6] was “binds more weakly” throughout.
“CCACTCAATACACCATCACCTTTTTTTTTTTTTTTTTTTTTTTTT / GGTGATGGTGTATTGAGTGG [20-bp dsDNA 3' poly(T) tail]”: the binding result in [4], in data set [5], in data set [6] and in data set [7] (weaker than TTGT tail) was “binds more weakly” each time.
“GAGCTACCAGCTACCCCGTATGTCAGAGAG (double strand) [blunt-end dsDNA 30 bp]”: the binding result was “no binding” in data set [1] (up to 9.6 uM protein), “no binding” in data set [9], “no binding” in [2] and “binds more weakly” in data set [3].
Consider “GAGCTACCAGCTACCCCGTATGTCAGAGAG [ssDNA 30-mer]”, for which the binding result is “binds” in data set [1] (single-stranded DNA), “binds” in data set [9] (single-stranded DNA), “binds more weakly” in data set [10] (single-stranded DNA) and “binds more weakly” in data set [11] (single-stranded DNA).
Consider “GAGCUACCAGCUACCCCGUAUGUCAGAGAG [ssRNA 30-mer]”, for which the binding result in [1] is “binds”; in data set [9], “binds”; in data set [10], “binds more weakly”; in data set [11], “binds more weakly”.
As to GGTTG, in data set [8] (weaker than GTTGT), the binding result was “binds more weakly”.
As for GTTTG, the binding result in data set [8] (weaker than GTTGT) is “binds more weakly”.
With TTTTT [dT5], in data set [12], the binding result is “binds more weakly”.
Consider TTTTTTTTTTTTTTTTTTTTTTTTTTTTTT [dT30], for which the binding result in [1] (setting [13]) and in [2] (setting [14]) was “binds” each time.
For the sequence “UGUUGUUGUUGUUGUACCGUAAAGACGC / GCGUCUUUACGGU [13-bp dsRNA 5' UUGU-repeat tail]”, the binding result in [4], in data set [5] and in data set [6] was “binds more weakly” in each case.
On to “UUUUUUUUUUUUUUUACCGUAAAGACGC / GCGUCUUUACGGU [13-bp dsRNA 5' poly(U) tail]”, for which the binding result in data set [4], in data set [5], in [6] and in [7] (weaker than UUGU tail) was “binds more weakly” each time.
Regarding UUUUUUUUUUUUUUUUUUUUUUUUUUUUUU [rU30], the binding result in [1] (rU30 > dT30 > dC30 > dA30) and in data set [2] (similar to KH-126) was “binds” throughout.
